Assay results taken from patent publication US20100273859A1, “TREATMENT AND PREVENTION OF HIV INFECTION” (THE BRIGHAM AND WOMEN'S HOSPITAL, INC., priority 2008, published 2010).
Some entries share one result that the patent states for a list of compounds.

System: HIV-IIIB
Assay: siRNA screen part one: p24 staining of siRNA-transfected TZM-bl cells 48 h after HIV-IIIB
Conditions: positive control siRNAs, 384 well format

CUGCUUGUACCAAUUGCUAUU (listed as RNA, chemistry not given here) [HIV-1 Tat]
decrease in p24 expression: 3 to 4 fold
